Measurements taken from article PMC5496025, “Abstracts from the 10th C1-inhibitor deficiency workshop” (Allergy, Asthma, and Clinical Immunology : Official Journal …, 2017).
These are yes or no findings as the source states them, for the method shown. Some entries that bind do so weakly or less than the wild type. Each block holds one binder with its values, some of them ahead of it.

Chains of the proteins cited; added tags and fusions are not shown. Residues count along the entry.
UniProt P03952, residues 20-638: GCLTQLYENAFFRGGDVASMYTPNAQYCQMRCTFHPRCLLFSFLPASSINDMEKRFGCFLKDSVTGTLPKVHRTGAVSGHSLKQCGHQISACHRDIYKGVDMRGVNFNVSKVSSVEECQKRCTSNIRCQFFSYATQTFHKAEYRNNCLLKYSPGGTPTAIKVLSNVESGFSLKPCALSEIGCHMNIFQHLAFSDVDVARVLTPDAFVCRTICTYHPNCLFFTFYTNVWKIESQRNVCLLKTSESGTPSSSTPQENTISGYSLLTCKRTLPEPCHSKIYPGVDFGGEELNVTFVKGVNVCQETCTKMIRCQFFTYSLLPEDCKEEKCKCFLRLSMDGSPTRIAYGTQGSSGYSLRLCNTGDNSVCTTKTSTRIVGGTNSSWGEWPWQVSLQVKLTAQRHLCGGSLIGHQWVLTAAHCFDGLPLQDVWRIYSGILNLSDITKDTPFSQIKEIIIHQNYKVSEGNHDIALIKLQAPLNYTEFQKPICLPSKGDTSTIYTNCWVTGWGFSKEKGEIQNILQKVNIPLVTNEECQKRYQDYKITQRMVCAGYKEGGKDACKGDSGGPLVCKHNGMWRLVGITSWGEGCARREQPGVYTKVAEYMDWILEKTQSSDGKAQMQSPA

Experiments:
[1] = biological target: T1, commercial plasma-derived C1-INH, further purified by ion-exchange chromatography (UniProt P05155); assay: SDS-PAGE of enzyme/C1-INH complexes; molar equivalent quantities of active enzymes and of C1-INH; both purified
T1 sequence: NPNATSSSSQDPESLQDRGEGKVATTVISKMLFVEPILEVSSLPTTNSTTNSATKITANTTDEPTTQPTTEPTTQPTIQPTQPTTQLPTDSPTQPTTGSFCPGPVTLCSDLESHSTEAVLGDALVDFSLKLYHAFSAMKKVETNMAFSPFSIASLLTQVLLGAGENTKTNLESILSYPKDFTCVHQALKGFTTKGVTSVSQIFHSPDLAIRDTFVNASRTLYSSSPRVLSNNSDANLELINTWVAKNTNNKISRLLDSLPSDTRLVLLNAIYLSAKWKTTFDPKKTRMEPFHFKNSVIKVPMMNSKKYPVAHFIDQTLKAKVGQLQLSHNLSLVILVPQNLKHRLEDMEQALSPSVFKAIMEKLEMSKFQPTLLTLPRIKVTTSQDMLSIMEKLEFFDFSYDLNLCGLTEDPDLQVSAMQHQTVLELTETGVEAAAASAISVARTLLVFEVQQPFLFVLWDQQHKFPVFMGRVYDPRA

[2] = biological target: T2, factor XIIa (UniProt P00748); assay: ELISA; factor XIIa or kallikrein as the C1 inhibitor ligand; plasma of 30 normal controls and 57 patients with type I/II HAE; only the target purified
T2 sequence: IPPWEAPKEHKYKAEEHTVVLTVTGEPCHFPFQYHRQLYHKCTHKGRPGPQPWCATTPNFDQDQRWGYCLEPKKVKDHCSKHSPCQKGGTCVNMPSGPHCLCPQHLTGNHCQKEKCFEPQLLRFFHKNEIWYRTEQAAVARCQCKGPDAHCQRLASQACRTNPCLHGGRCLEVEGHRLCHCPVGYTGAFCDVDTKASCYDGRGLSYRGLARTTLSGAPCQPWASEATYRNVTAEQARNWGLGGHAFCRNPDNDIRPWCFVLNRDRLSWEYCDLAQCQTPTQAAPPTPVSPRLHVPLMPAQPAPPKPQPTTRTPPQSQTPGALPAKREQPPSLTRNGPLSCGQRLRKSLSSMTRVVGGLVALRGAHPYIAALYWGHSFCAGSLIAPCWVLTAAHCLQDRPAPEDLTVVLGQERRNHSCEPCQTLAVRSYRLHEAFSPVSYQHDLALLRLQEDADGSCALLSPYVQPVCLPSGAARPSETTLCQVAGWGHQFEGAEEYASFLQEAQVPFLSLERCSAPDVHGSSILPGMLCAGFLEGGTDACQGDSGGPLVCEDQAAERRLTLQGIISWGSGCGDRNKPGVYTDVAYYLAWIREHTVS

[3] = biological target: plasma kallikrein (UniProt P03952); assay: as above

binding [1]: binds
B1: active recombinant C1s (enzyme, UniProt P09871 16-688)
chain: EPTMYGEILSPNYPQAYPSEVEKSWDIEVPEGYGIHLYFTHLDIELSENCAYDSVQIISGDTEEGRLCGQRSSNNPHSPIVEEFQVPYNKLQVIFKSDFSNEERFTGFAAYYVATDINECTDFVDVPCSHFCNNFIGGYFCSCPPEYFLHDDMKNCGVNCSGDVFTALIGEIASPNYPKPYPENSRCEYQIRLEKGFQVVVTLRREDFDVEAADSAGNCLDSLVFVAGDRQFGPYCGHGFPGPLNIETKSNALDIIFQTDLTGQKKGWKLRYHGDPMPCPKEDTPNSVWEPAKAKYVFRDVVQITCLDGFEVVEGRVGATSFYSTCQSNGKWSNSKLKCQPVDCGIPESIENGKVEDPESTLFGSVIRYTCEEPYYYMENGGGGEYHCAGNGSWVNEVLGPELPKCVPVCGVPREPFEEKQRIIGGSDADIKNFPWQVFFDNPWAGGALINEYWVLTAAHVVEGNREPTMYVGSTSVQTSRLAKSKMLTPEHVFIHPGWKLLEVPEGRTNFDNDIALVRLKDPVKMGPTVSPICLPGTSSDYNLMDGDLGLISGWGRTEKRDRAVRLKAARLPVAPLRKCKEVKVEKPTADAEAYVFTPNMICAGGEKGMDSCKGDSGGAFAVQDPNDKTKFYAAGLVSWGPQCGTYGLYTRVKNYVDWIMKTMQENSTPRED

binding [1]: binds
B2: active recombinant C1r (enzyme, UniProt P00736 18-705)
chain: SIPIPQKLFGEVTSPLFPKPYPNNFETTTVITVPTGYRVKLVFQQFDLEPSEGCFYDYVKISADKKSLGRFCGQLGSPLGNPPGKKEFMSQGNKMLLTFHTDFSNEENGTIMFYKGFLAYYQAVDLDECASRSKSGEEDPQPQCQHLCHNYVGGYFCSCRPGYELQEDTHSCQAECSSELYTEASGYISSLEYPRSYPPDLRCNYSIRVERGLTLHLKFLEPFDIDDHQQVHCPYDQLQIYANGKNIGEFCGKQRPPDLDTSSNAVDLLFFTDESGDSRGWKLRYTTEIIKCPQPKTLDEFTIIQNLQPQYQFRDYFIATCKQGYQLIEGNQVLHSFTAVCQDDGTWHRAMPRCKIKDCGQPRNLPNGDFRYTTTMGVNTYKARIQYYCHEPYYKMQTRAGSRESEQGVYTCTAQGIWKNEQKGEKIPRCLPVCGKPVNPVEQRQRIIGGQKAKMGNFPWQVFTNIHGRGGGALLGDRWILTAAHTLYPKEHEAQSNASLDVFLGHTNVEELMKLGNHPIRRVSVHPDYRQDESYNFEGDIALLELENSVTLGPNLLPICLPDNDTFYDLGLMGYVSGFGVMEEKIAHDLRFVRLPVANPQACENWLRGKNRMDVFSQNMFCAGHPSLKQDACQGDSGGVFAVRDPNTDRWVATGIVSWGIGCSRGYGFYTKVLNYVDWIKKEMEEED

binding [1]: binds
B3: commercially available active FXII (enzyme, UniProt P00748 20-615)
chain: T2 sequence

B4: commercial plasma-derived C1-INH, further purified by ion-exchange chromatography (natural protein, UniProt P05155 23-500, looked up)
chain: T1 sequence
notes: source: bought: commercial plasma-derived C1-INH, further purified by ion-exchange chromatography
binding [2]: binds
binding [3]: binds
